Measured values taken from the supplement of paper PMC7889204.
This is one part of the list. Repeats are few or missing, and single values can be far off.

Test system: C6
Assay: cell mass (Coomassie absorbance) after combination of library compound with HMBA, relative to vehicle control (fraction); higher = more remaining cells (less growth inhibition)

Question: How did the cell mass turn out when `Cc1ccc2c(=O)c3cccc(CC(=O)O)c3oc2c1C` + CC(=O)NCCCCCCNC(C)=O [hexamethylene bisacetamide] was run?
Answer: 0.498

Question: For `Cn1c(N2CCCCS2(=O)=O)nc(C(=O)NCc2ccc(F)cc2)c(O)c1=O` + CC(=O)NCCCCCCNC(C)=O [hexamethylene bisacetamide], which cell mass is on record?
Answer: 0.55

Question: Which cell mass does the source give for `Cc1c(CN2CCN(C(=O)[C@H](C)O)CC2)sc2c(N3CCOCC3)nc(-c3cnc(N)nc3)nc12` + CC(=O)NCCCCCCNC(C)=O [hexamethylene bisacetamide] here?
Answer: 0.558

Question: Which cell mass does the source give for `COCC[n+]1c2c(n(Cc3cnccn3)c1C)C(=O)c1ccccc1C2=O` + CC(=O)NCCCCCCNC(C)=O [hexamethylene bisacetamide] here?
Answer: 0.702

Question: With `O=C(NOCC(O)CO)c1cc(Br)c(F)c(F)c1Nc1ccc(I)cc1F` (centres undefined) + CC(=O)NCCCCCCNC(C)=O [hexamethylene bisacetamide] as the molecule, how does the cell mass read?
Answer: 0.728

Question: How did the cell mass turn out when `Cc1cc(Nc2nc(N[C@@H](C)c3ccc(F)cc3)c(C#N)cc2F)n[nH]1` + CC(=O)NCCCCCCNC(C)=O [hexamethylene bisacetamide] was run?
Answer: 0.494

Question: Which cell mass does the source give for `Cc1cnc(-c2cnc(NCCNc3ccc(C#N)cn3)nc2-c2ccc(Cl)cc2Cl)[nH]1` + CC(=O)NCCCCCCNC(C)=O [hexamethylene bisacetamide] here?
Answer: 0.357

Question: `O=C1NC(=O)/C(=C/c2ccc3c(c2)OC(F)(F)O3)S1` + CC(=O)NCCCCCCNC(C)=O [hexamethylene bisacetamide] was tested. Which cell mass did it give?
Answer: 0.587

Question: For `CCc1cccc(CC)c1NC(=O)N1Cc2[nH]nc(NC(=O)c3ccc(N4CCN(C)CC4)cc3)c2C1` + CC(=O)NCCCCCCNC(C)=O [hexamethylene bisacetamide], which cell mass is on record?
Answer: 0.617
